Source: US20130190240A1, “TUMOR GROWTH CONTROLLING METHOD TARGETING GALACTOSYLCERAMIDE EXPRESSION FACTOR-1” (priority 2010, published 2013)
Some entries share one result that the patent states for a list of compounds.

Test system: COLO205 cells
Assay: in vivo anti-tumor growth effect of oligopeptides, COLO205 cells in nude mice
Parameters: species or system human
Conditions: cells incubated with oligopeptide 25 nmol and Wr-T for 2 hours, then inoculated subcutaneously into nude mice

| Substance | inhibition of COLO205 cell tumor growth [%] |
| --- | --- |
| OP10-9: GEF-1/C constituent oligopeptide ERQRQIQLAQ (SEQ ID NO: 62) | ≥ 70 |
| OP10-11: GEF-1/C constituent oligopeptide EYLEVQRQLA (SEQ ID NO: 64) | ≥ 70 |
